Measured values from patent publication US20220177593A1.
No constants are given. Whether binding was seen depends on the method and setting. Some binding calls cover weakened binding; strength is not graded here.

The chains behind the UniProt entries cited, without tags or fusion partners. Where a name states a change or a piece, a line headed by the entry shows the natural chain unless it says otherwise.
UniProt P30530: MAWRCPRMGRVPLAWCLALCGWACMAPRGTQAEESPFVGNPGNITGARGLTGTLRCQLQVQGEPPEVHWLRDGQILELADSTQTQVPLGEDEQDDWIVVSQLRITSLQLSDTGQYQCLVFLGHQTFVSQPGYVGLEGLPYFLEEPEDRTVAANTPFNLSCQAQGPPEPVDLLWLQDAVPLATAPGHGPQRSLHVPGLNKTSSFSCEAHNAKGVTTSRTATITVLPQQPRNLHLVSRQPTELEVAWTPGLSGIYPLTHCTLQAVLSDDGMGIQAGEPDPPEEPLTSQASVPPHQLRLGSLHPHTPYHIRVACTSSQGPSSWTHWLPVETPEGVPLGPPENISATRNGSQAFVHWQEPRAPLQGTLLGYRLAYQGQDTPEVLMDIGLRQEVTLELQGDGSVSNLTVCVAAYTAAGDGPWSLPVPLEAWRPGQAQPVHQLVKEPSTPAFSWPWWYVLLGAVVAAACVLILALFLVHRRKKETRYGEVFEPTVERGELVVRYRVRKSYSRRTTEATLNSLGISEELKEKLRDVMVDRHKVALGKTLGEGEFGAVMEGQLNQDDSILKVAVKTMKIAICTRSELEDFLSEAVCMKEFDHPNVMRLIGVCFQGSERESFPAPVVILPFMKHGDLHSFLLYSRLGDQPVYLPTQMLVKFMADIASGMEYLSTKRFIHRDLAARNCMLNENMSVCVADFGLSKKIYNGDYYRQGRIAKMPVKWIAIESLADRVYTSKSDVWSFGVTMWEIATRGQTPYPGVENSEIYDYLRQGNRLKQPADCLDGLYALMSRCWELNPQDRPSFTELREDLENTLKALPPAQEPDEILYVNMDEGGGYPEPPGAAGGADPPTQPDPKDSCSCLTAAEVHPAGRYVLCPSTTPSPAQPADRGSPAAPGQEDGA

Target: Domain 1 and Domain 2 of Axl-ECD (human) (UniProt P30530)
Experiment: ELISA on purified Axl domains coated on plates, Ab301 at 5 ug/mL

B1: Ab301 (antibody, human IgG1, V domains shown)
VH: EVKLEASGGGLVQPGMSVKLSCTTSGFTFSDYWMEWVRQAPGKGLEWVAEIRNKVNNYATYYGKSVKGRFTISRDDSKSIVYLQMNSIRSEDTGIYYCNTLRLFAYWGQGTLVTVSA
VL: DIVMTQAPLSISVTPGESPSMSCRSSKSLLHRNGITYVYWYLQKPGKSPQLLIYRMSTLASGVPDRFSGSGSETDFTLKINKVEAEDVGIYYCGQLLENPYTFGAGTRLEIK
With B1 the binding was “binds”.
